Some entries share one result that the patent states for a list of compounds. No end group written: not given here.
System: gram-negative bacteria (E. coli) and gram-positive bacteria (S. aureus)
Assay: antimicrobial test of Example 2, results summed up in words
Assay type: cell-based
Details: summary of Table 2, E. coli and S. aureus
Procedure: Regarding the antimicrobial polypeptide of the present invention (samples 1 to 33) and the polypeptides of comparative samples 1 to 3, the antimicrobial activities (minimum inhibitory concentration: MIC) with respect to gram-negative bacteria (E. coli) and gram-positive bacteria (S. aureus) were determined by a liquid medium dilution technique using a 96-well microplate.
More specifically, liquid bouillon media (“NUTRIENT BROTH Dehydraged” manufactured by DIFCO) in a polypeptide concentration of 500, 250, 125, 62.5, 31.3, 15.6, 7.8, 3.9, 1.9, 1.0 and 0.5 μM were prepared, and filled in a 96-well microplate. On the other hand, bacteria suspension (about 2×10^6 cells/mL) that had been stationary cultured at 37° C. for 18 hours with LB Broth, Lennox (manufactured by DIFCO) were inoculated to each well of the 96-well microplate in an equal amount to that of the pharmaceutical solution (the above-described polypeptide-containing bouillon medium). After inoculation, culture was started in an incubator at 37° C., and it was examined based on the turbidity after 24 hours and 48 hours whether or not bacteria are present. The minimum of the polypeptide concentrations in which no increase in the turbidity caused by bacteria at the time of measurement was observed was defined as MIC in this example.

PKKKRKVPPRKKRTVV [sample 19, PKKKRKVPPRKKRTVV]
antimicrobial activities (in words): particularly high antimicrobial activities
